# In all, about 31,000 sequences went through this assay and about 1,400 (4.5%) were called active.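 Rule for the calls: active = median seed-adjusted z-score above 1 or below -1; inactive = the rest.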 Some of the results follow.
# Assay: Novel Modifiers of Survival Motor Neuron (SMN) Protein: Gene Identification via Genome-wide siRNA Screen;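 note: luminescence tracks full-length SMN protein made from the SMN2 reporter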
# Settings: HEK293T SMN2-luciferase reporter, siRNA knockdown, 72 h; actives lie on both sides
# How it was run: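 Each of three siRNAs per gene is reverse-transfected (1 pmol) into reporter HEK293T cells whose luciferase output tracks SMN protein level. After 72 h culture, ONE-Glo luminescence is control-normalized, log10-transformed and MAD-standardized; Common Seed Analysis deprioritizes seed-driven hits.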
row,Sequence,median seed-adjusted z-score
1,CAGUUGUCCUUGUGGAUAATT against TTF1,active: 1.76
2,GUUCCUGAAGGAUCCCUAUTT against DGAT1,inactive: 0.148
3,AAGCUGUAAUUAGCAAUGATT against NRL,inactive: -0.352
4,GCAUGCUUCUACGAUAUAATT against AIFM1,inactive: 0.0499
5,CGUUCGGUCUGACGCAGUATT against LRP5,active: -1
6,GAGUGAAGUAUAAUCCAUATT against TPH1,inactive: -0.055
7,GAAUGGUGUUUUACUCUAUTT against ZFYVE26,inactive: 0.0495
8,CAAUUUUUCCCUGAAUAGATT against KLRC4,inactive: -0.218
9,GUCCUGUCUUGAUUAAAUUTT against CHST7,inactive: 0
10,GGACCACACUGGGACUUAUTT against SEL1L2,inactive: -0.342
11,GGAGGAUGUUAGAUCAUGATT against TOP1MT,inactive: 0.159
12,CAAUGAAAAGGCUUAAAAATT against NEUROG1,inactive: 0.485
13,GGCACUUACUAUGACAAUUTT against EZH2,inactive: 0.313
14,GAAAAGCCCUGGUGCUUUATT against HABP2,inactive: -0.141
15,CAAUGAGCCUCAUAACAAATT against SLC22A9,inactive: -0.778
16,CCAUAUCUCUCGGUGUACATT against CDC42BPA,inactive: 0.257
17,AGAUGAUGGAGCUCAAUGATT against GFAP,inactive: -0.312
18,CAAUCAUCUUUGCAAUUAUTT against KRTAP9-3,inactive: -0.184
19,CAGUGUCCAUGUACCUCUUTT against SLC37A4,inactive: -0.00202
20,GUAUCUAUUCGGACAGAUATT against RAD1,inactive: -0.71
21,GGUCUUUAAUUCGAAGCGATT against ZNF765,inactive: 0.541
22,GGAUGUAAGAAAAGCAUGATT against ZFYVE1,inactive: -0.546

row,Sequence,median seed-adjusted z-score
1,CAAACUCACUAAUGAUUAUTT against SERPINB13,inactive: 0.0593
2,CGAUCUCAGAUAGAUCAGATT against ZHX2,inactive: 0.0708
3,GCCUCACCAUUGCAUGCAATT against S100A10,inactive: 0.366
4,CAUUAUGAAUUGGAUAUCATT against EIF2C2,inactive: -0.183
5,GGACAAUAAUGAGUACAUUTT against RNF145,inactive: -0.554
6,GCUGAGAUUUUCAAUAAGATT against NR1H4,inactive: -0.056
7,CACCUGUUCUAUCACAGUATT against NOP2,active: 1.15
8,GAUUGAUGGGUUUCCAAGATT against CMPK1,inactive: -0.363
9,GGGAUGUACUCGAACCUAUTT against ZNF292,inactive: -0.481
10,CCUCUAUCGUCUUACGAGATT against RAPGEF4,inactive: -0.197
11,AGCACAAGAUUGGACCAAUTT against NME4,inactive: -0.155
12,GAUCUAUUGUGACUCGAGATT against COL22A1,inactive: 0.3
13,GUACAGACCUGAGAAUUCUTT against CTSL2,active: -1.04
14,GGAACACUGUAUAACACCATT against ATG7,inactive: -0.328
15,GCACUGGAGUUGUCUCUUATT against NPTXR,inactive: 0.0818
16,CGGUAUUAUUGUCAUUGCATT against UBE2K,inactive: 0.497
17,ACACCAAGAAGAUAUGGAATT against ZNF681,inactive: 0.271
18,GGGAGAAGGUGAGCAGUAUTT against ZYX,inactive: 0.273
19,AAUCAAUGCUCAAACCACATT against CRADD,inactive: -0.255
20,ACAUGUACCUGUAUUAAAATT against RLN2,inactive: 0.877
21,GCUAUGCUGAUGACACGUUTT against RAB3B,inactive: -0.705
22,GGAUAUCCUCCAUAAUGUUTT against SLC16A1,inactive: -0.277

row,Sequence,median seed-adjusted z-score
1,CGUCUUAUCUUUAGAGAUUTT against PPT1,inactive: 0.727
2,GCACAAAACAGCUGAGGCATT against OLFM1,inactive: -0.103
3,GAUCGGAAGUUGCACCCAUTT against ARHGEF10,inactive: 0.22
4,CAUCUAGACUUGUAUGCAATT against ATP10B,inactive: 0.51
5,CCCUGUAUGGGAUCACUUUTT against SCD,inactive: -0.982
6,GCAUCGGAAGAUCAUUUUATT against THOC3,inactive: 0.689
7,GACGUAACAUCAACAGAUATT against SV2B,inactive: -0.43
8,AGAAAAUCGUUUCCCACUATT against GJA8,inactive: 0
9,GAUGCGUUCAUGUCAGAAATT against SLC4A1AP,inactive: -0.0117
10,CAGUGGUAAGAAAGAGAAATT against NRCAM,inactive: -0.0304
11,AGAAUAUUAUGACUAUGGATT against KHDRBS1,inactive: 0.0916
12,GUCAAGAUCUGUAAGAGCATT against SGK269,inactive: -0.171
13,GGAUGAGAAAGUCGUGAAATT against TSHZ2,inactive: -0.361
14,CCACAAGGGUUAUCUGUCATT against MAPK4,inactive: 0.235
15,GCCCUACAUGGUAAAUUCATT against GTDC1,inactive: 0.2
16,CAUUAUCUAUGAUUAUGGATT against OGN,inactive: 0.0889
17,AAAUCAAUCCAGACAUGAATT against CD97,inactive: 0.202
18,GAUUGUCAAAGGGAAAAGATT against TTLL9,inactive: 0.0534
19,GGGCAGAUGACACCUUUGATT against TCEB2,active: 1.28
20,GGGAAGAUUUCGUUCAAAATT against CETN2,inactive: -0.0139
21,GAGGCUGAUUGGACGGAAATT against HSPA2,inactive: -0.0343
22,CUGACGAGCCGGGAAAAUATT against LCN1,inactive: 0.0607

row,Sequence,median seed-adjusted z-score
1,GCAAAUGAAGUGUCUCAAATT against DHRS11,inactive: -0.476
2,GAAAACAACCAUAAAGAAATT against SYT6,inactive: -0.072
3,GAAGGAGAAUGGUAUCACUTT against GPATCH4,inactive: -0.519
4,GAGUUUGACCCAAUAUGAATT against TYR,inactive: 0.131
5,CACCCAACACCAAACUGUATT against HSPB6,inactive: 0.394
6,GAUCACGUUUGACAACAAATT against MCOLN1,inactive: -0.522
7,CAACUCCGUGGUUACCAAATT against PQBP1,active: -1.12
8,GGGUCAGUGCAUCUUCAAATT against ABCG4,inactive: -0.439
9,GCAGCAAGGUGGUACAGAATT against FASTK,inactive: 0.306
10,GGUUUUAAAGAACAGUUCATT against TAAR6,inactive: -0.124
11,CACUCUUCGUGGUGGGUAUTT against GHSR,inactive: 0.18
12,GGACAUCCUCAAUCAGGGATT against N-PAC,inactive: 0.0542
13,GAGGGACGAUGUCAACGUATT against RHOV,inactive: -0.326
14,GGAAAUUAUGUAGAACCGATT against ALDH7A1,inactive: -0.406
15,GGAUGACAUUAAUUCCUAUTT against F9,inactive: 0.332
16,GGAUAUGAGAGGUUUACUATT against TOM1L1,inactive: -0.0722
17,ACAGCUUUAUUGCCGAGAATT against NOVA2,inactive: 0
18,CCUCCAACCUGACUACUAATT against ZDHHC18,inactive: -0.309
19,GCUAAGACCAUGUUCCGGATT against IRF9,inactive: 0.114
20,GCCUUAGGGUUGUUCCUGUTT against CHMP1A,inactive: 0
21,GAUUAUUCCCACUACAUUUTT against TMEM11,inactive: -0.00121
22,GGAUAUUUGGAAUUCUGAATT against FKBP9,inactive: 0.359

# Five records drawn at random from the list so far:
row,Sequence,median seed-adjusted z-score
19,GCUAAGACCAUGUUCCGGATT against IRF9,inactive: 0.114
8,GGGUCAGUGCAUCUUCAAATT against ABCG4,inactive: -0.439
20,GCCUUAGGGUUGUUCCUGUTT against CHMP1A,inactive: 0
12,GGACAUCCUCAAUCAGGGATT against N-PAC,inactive: 0.0542
1,GCAAAUGAAGUGUCUCAAATT against DHRS11,inactive: -0.476

# (listing goes on)

row,Sequence,median seed-adjusted z-score
1,AGAAGAUAUUUACAGCUCUTT against HSD17B11,inactive: 0.379
2,CGAAAUCAAUAUGAACGAATT against STX8,inactive: 0.475
3,AGGUGGAGUUGAUCCGGAATT against PIAS4,inactive: 0.265
4,ACAACAUGAUCAUCGCCUATT against SLC6A7,inactive: 0.00508
5,GAACGUAAGAAAUACAAUUTT against HSPA4L,inactive: 0.288
6,GGCACAUCUUAAACUCGGATT against NASP,inactive: 0.133
7,CAGAAUUGUUUGUUAUGAATT against MTIF2,inactive: 0.236
8,CCCAACCUAUCAUCCAGAUTT against KLF14,inactive: 0.0241
9,CACUGUAACGGGACUUUUATT against SOCS5,inactive: 0.312
10,AGUUUGUCCUGAAGAAUUATT against PTPN23,inactive: -0.0473
11,CGGAGAACUUCAUCGGCAATT against MGAT5B,inactive: 0
12,AGACCUAUCUUUUUCUGUATT against TRIM48,inactive: 0
13,GGAUGUGAUUGGGUGGACATT against SIPA1L2,inactive: -0.573
14,GGCUUGAUGCUGGUACUUUTT against HACL1,inactive: -0.0664
15,CUAUAAUGGUUCCAGUAUATT against RFWD2,inactive: 0.662
16,GUUACGAGAUGACAAUCUATT against ANAPC10,inactive: 0.946
17,CAGUCUUCCUGGGAAGUAATT against SCAMP5,inactive: -0.303
18,GGGCUGUUGUAAUAGUGGATT against SFPQ,active: -1.15
19,GGUCCUAAGUUUGAAGUCATT against FRMPD2,inactive: -0.329
